Record: PubChem BioAssay AID652272 (Drosophila RNAi Screening Center, 2013)
In all, the deposit lists about 21,000 reagents; this is an unselected part of those with a known target gene and a result. Of all reagents, 503 (2.4%) were called active. 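Raw plate light values, not normalised; calls rest on replicate z-scores that were not deposited; hits include reporter decreases as well as increases.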 A number with no mark means an inactive call. Names joined by + are all predicted targets of the reagent. Reagent sequences are not shown. Not given: the amount of reagent, the time to read-out.

Aim: 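Genes whose knock-down decreases or increases Hedgehog reporter output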 (primary screen)
System: Drosophila clone 8 (Cl8) cells
Reagents: long dsRNA against Drosophila genes
Detection: 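Plate reader light from a firefly reporter under a ptc promoter fragment that responds to Hedgehog, with Renilla light as transfection reference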
Reading the numbers: firefly Hh reporter signal: higher = more ptc reporter light; Renilla reference signal: higher = more Renilla control light
Active means: 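Hit when the z-score averaged over two replicates is under -2 or over +3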
Meaning of the calls: active = hit: reporter lowered or raised; inactive = not a hit

| Gene | dsRNA | firefly Hh reporter signal, replicate 1 | firefly Hh reporter signal, replicate 2 | Renilla reference signal, replicate 1 | Renilla reference signal, replicate 2 |
| --- | --- | --- | --- | --- | --- |
| Cul6 | DRSC09830 | 90344 | 53472 | 3703 | 1824 |
| Jon99Ci | DRSC16860 | 90736 | 1.31e5 | 3111 | 4397 |
| CG14691 | DRSC14914 | 73849 | 1.04e5 | 1370 | 3416 |
| Polr1E | DRSC14506 | 5.05e5 | 80836 | 29100 | 1824 |
| Polr1E | DRSC15358 | 1.06e5 | 84396 | 4784 | 3777 |
| CG7715 | DRSC16301 | 7.68e5 | 1.27e5 | 40041 | 3541 |
| CG6118 | DRSC15968 | 55571 | 21828 | 1595 | 786 |
| mTor | DRSC02811 | 71763 | 42246 | 2681 | 1936 |
| CG32440 | DRSC11480 | 2.31e5 | – | 5818 | – |
| CG7290 | DRSC10800 | 89973 | 1.29e5 | 3372 | 3827 |
| Prat2 | DRSC09692 | 1.24e5 | 1.15e5 | 5236 | 4760 |
| CG1172 + Or83a | DRSC12357 | 52236 | 99322 | 1830 | 2913 |
| CG14711 + Zaf1 | DRSC14934 | 1.02e5 | 1.45e5 | 3616 | 12756 |
| Obp56i | DRSC05812 | 1.34e5 | 2.92e5 | 3952 | 11276 |
| Tengl4 | DRSC15620 | 88237 | 92743 | 2408 | 2453 |
| Pif2 | DRSC12525 | 60437 | 72086 | 2304 | 2299 |
| Pos | DRSC15415 | 71381 | 1.85e5 | 2466 | 6765 |
| vig2 | DRSC14402 | 95417 | 70592 | 3077 | 2184 |
| mRpL47 | DRSC16827 | 50541 | 81065 | 1299 | 2691 |
| CG13251 | DRSC11699 | 99456 | 1.12e5 | 3216 | 3234 |
| CG30291 | DRSC03842 | 1.38e5 | 1.98e5 | 8778 | 6995 |
| Arp1 | DRSC14118 | 71625 | 1.25e5 | 2600 | 3052 |
| CG32812 | DRSC18478 | 61568 | 1.57e5 | 1712 | 5963 |
| Ada | DRSC14463 | 83753 | 1.58e5 | 2616 | 4288 |
| Nsun2 | DRSC18662 | 1.52e5 | 1.53e5 | 3127 | 5123 |
| CG42382 | DRSC07671 | 97429 | 53984 | 2144 | 4608 |
| Gadd45 | DRSC06033 | 99836 | 45920 | 2822 | 3844 |
| Tmhs | DRSC08231 | 1.10e5 | 97351 | 5219 | 4053 |
| CG30259 | DRSC04164 | 1.30e5 | 79048 | 3644 | 6301 |
| CG30259 | DRSC04165 | 93975 | 78295 | 2416 | 7321 |
| ema | DRSC14536 | 1.01e5 | 1.14e5 | 2770 | 930 |
| CG31091 | DRSC15933 | 4.64e5 | 95728 | 22854 | 2418 |
| CG18508 | DRSC18155 | 99127 | 1.87e5 | 3845 | 7625 |
| CG13032 | DRSC09912 | 1.62e5 | – | 2055 | 8009 |
| Xpd | DRSC04666 | 84711 | 71576 | 3043 | 2667 |
| Yp1 | DRSC18731 | 68020 | 1.42e5 | 1435 | 5095 |
| CG14618 | DRSC20631 | 66582 | 1.35e5 | 2150 | 6553 |
| CG34284 | DRSC14773 | 4.23e5 | 1.04e5 | 19667 | 2955 |
| CG11134 | DRSC19384 | 4.17e5 | 89970 | 3606 | 3606 |
